Test results published in the supplement of paper PMC10338343.
± gives the standard deviation. The list shows a part of the results, in another mix than the full data. The uncertainty is large for many entries.

Tested on: MILI (PIWIL2) piRISC loaded with piRNA #1 (26 nt)
Test: pre-steady-state target cleavage rate (min^-1); higher = faster piRNA-guided slicing of the target
Conditions: guide: piRNA #1 5'p-UGAGGUAGUAGGUUGUAUAGUAUCCA; auxiliary factor: 500 nM mouse GTSF1
Method in brief: (§1)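 A transcribed, DNA-blocked target RNA library (0.1 nM) and 1 nM active affinity-purified piRISC bearing one synthetic guide were incubated in HEPES–potassium acetate buffer at 33 °C for 0–8 or 0–960 min, either with or without 500 nM GTSF1 partner protein. Uncleaved targets were sequenced, normalised to depth and to weakly complementary targets, and pooled over three trials, with k3 capped at 0.0001 min^-1. The pre-steady-state cleavage rate was derived with a burst-and-steady-state fit.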

Sequence | pre-steady-state target cleavage rate
GGAGACCUAACUAAUACAACCUACUACCUCA | 0.103 ± 0.025
GGAGACCUAUGAUAUGUACCUUCUACCUCA | 0.000128 ± 0.019
GGAGACCAUACUAUACAACCUUCUACGUCA | 0.00397 ± 0.0034
GGAGACCAUACUAUACAAGCUACUACCUCA | 0.253 ± 0.02
GGAGACCAUACUAUACAACCUAGUACGUCA | 0.0015 ± 0.0065
GGAGACGAAACUAUACAACCUACUACGUCA | 0.0713 ± 0.022
GGAGAGGAAACUAUUCAACCUACUACCUCA | 0.172 ± 0.021
GGAGACCUAUGAUUAGAACCUACUAGCUCA | 0.000116 ± 0.032
GGAGACCAUACUUUACAACCUACAACCUCA | 0.14 ± 0.018
GGAGACCUAUGAAAACAACCUACUACCACA | 0.00203 ± 0.0057
GGAGACGAUACUAUACUUCCUACUACCUCA | 0.242 ± 0.016
GGAGACGAUAGUAUACAACCUAGUACCUCA | 0.0719 ± 0.011
GGAGAGGAUACUAUAAACCUACUACCUCA | 0.0203 ± 0.0036
GGAGACCUAAGCUAUACAACCUACUACCUCA | 0.141 ± 0.028
GGAGAGGAUACUAUACAACCUACUUCGUCA | 0.000698 ± 0.0074
GGAGACCUAUGAUAACAACCUACUACGUGA | 0.000639 ± 0.011
GGAGUGGAAACUAUAGAACCUACUACCUCA | 0.204 ± 0.014
GGAGACGAUACUAUACAACCUACUAGGAGA [g6:g24:cont:t1A] | 0.00281 ± 0.0038
GGAGACGAUACUAUACAACCUUGAACCUCA | 0.00157 ± 0.0046
GGAGACCUAUGAUAACAACGAUCUACCUCA | 0.000541 ± 0.012

Sequence | pre-steady-state target cleavage rate
GGAGACCUAACUAUUCAACCUACUACCUGA | 0.0858 ± 0.03
GGAGACCUUACUAUACAACCUUGUACCUCA | 0.000951 ± 0.0093
GGAGACCUAUGUAUACAACCUAGUACGUCA | 0.00191 ± 0.0046
GGAGACCUAUGAUUACUACCAACUACCUCA | 0.00118 ± 0.0054
GGAGACCAUACUAUACAAGCUACUACCACA | 0.32 ± 0.02
GGAGUGGAUACUAUAGAUCCUACUACCUCA | 0.251 ± 0.015
GGAGACCAUACUAUACAACCAUCUACCUCA | 0.00204 ± 0.005
GGAGACCUAUGAUAUAAACCUACUACCUCA | 0.000968 ± 0.0066
GGAGACCAUACUAUACUACCUAGUACCUCA | 0.0453 ± 0.0095
GGAGACCUAUGAUAAGAACCUAGUACCUCA | 0.000141 ± 0.019
GGAGACCUAUCUAUACAACCUAGUACCUGA | 0.00107 ± 0.0053
GGAGACCAUACUAUUCAACCUUCUACCUCA | 0.00695 ± 0.0026
GGAGAGGAUACUAUUCAACCAACUACCUCA | 0.00614 ± 0.0021
GGAGACGAUACUAUUCAACGUACUACCUCA | 0.0257 ± 0.0034
GGAGACCUUAGUAUACAUCCUACUACCUCA | 0.126 ± 0.018
GGAGAGGAUACUAUACAACCAACUUCCUCA | 0.00119 ± 0.0043
GGAGACCUAUGAUAAGAACGUACUACCUCA | 0.000249 ± 0.014
GGAGACCUAUGUAUACAACCUACUACCUUCA | 0.0648 ± 0.0099
GGAGACCUAUGAUAUCAACCAACUAGCUCA | 0.000275 ± 0.013
GGAGACCUUACUAUACAACCUACUACGCUCA | 0.256 ± 0.019

Tested on: EfPiwi piRISC loaded with piRNA #1 (26 nt)
Test: pre-steady-state target cleavage rate (min^-1); guide: piRNA #1 5'p-UGAGGUAGUAGGUUGUAUAGUAUCCA; MIWI and MILI are mouse PIWI proteins and EfPiwi is from a freshwater sponge; tags in brackets are library labels; higher = faster piRNA-guided slicing of the target
Conditions: auxiliary factor: 500 nM Ephydatia muelleri Gtsf1
Method in brief: as §1

Sequence | pre-steady-state target cleavage rate
GGAGACCUAACUAAUACAACCUACUACCUCA | 0.0103 ± 0.0044
GGAGACCUAUGAUAUGUACCUUCUACCUCA | 0.000205 ± 0.0088
GGAGACCAUACUAUACAACCUUCUACGUCA | 0.00387 ± 0.0029
GGAGACCAUACUAUACAAGCUACUACCUCA | 0.00377 ± 0.0015
GGAGACCAUACUAUACAACCUAGUACGUCA | 0.00483 ± 0.0024
GGAGACGAAACUAUACAACCUACUACGUCA | 0.00245 ± 0.0024
GGAGAGGAAACUAUUCAACCUACUACCUCA | 0.013 ± 0.0061
GGAGACCUAUGAUUAGAACCUACUAGCUCA | 0.000171 ± 0.012
GGAGACCAUACUUUACAACCUACAACCUCA | 0.00301 ± 0.0034
GGAGACCUAUGAAAACAACCUACUACCACA | 0.00047 ± 0.017
GGAGACGAUACUAUACUUCCUACUACCUCA | 0.0109 ± 0.0064
GGAGACGAUAGUAUACAACCUAGUACCUCA | 0.00201 ± 0.0013
GGAGAGGAUACUAUAAACCUACUACCUCA | 0.0039 ± 0.0043
GGAGACCUAAGCUAUACAACCUACUACCUCA | 0.184 ± 0.066
GGAGAGGAUACUAUACAACCUACUUCGUCA | 0.00697 ± 0.0031
GGAGACCUAUGAUAACAACCUACUACGUGA | 0.000874 ± 0.0081
GGAGUGGAAACUAUAGAACCUACUACCUCA | 0.000481 ± 0.0046
GGAGACGAUACUAUACAACCUACUAGGAGA [g6:g24:cont:t1A] | 0.00317 ± 0.0021
GGAGACGAUACUAUACAACCUUGAACCUCA | 0.0016 ± 0.0025
GGAGACCUAUGAUAACAACGAUCUACCUCA | 0.000828 ± 0.0072

Sequence | pre-steady-state target cleavage rate
GGAGACCUAACUAUUCAACCUACUACCUGA | 0.00317 ± 0.0044
GGAGACCUUACUAUACAACCUUGUACCUCA | 0.00267 ± 0.0031
GGAGACCUAUGUAUACAACCUAGUACGUCA | 0.00076 ± 0.0024
GGAGACCUAUGAUUACUACCAACUACCUCA | 0.00029 ± 0.011
GGAGACCAUACUAUACAAGCUACUACCACA | 0.00382 ± 0.0046
GGAGUGGAUACUAUAGAUCCUACUACCUCA | 0.0045 ± 0.0029
GGAGACCAUACUAUACAACCAUCUACCUCA | 0.00166 ± 0.0026
GGAGACCUAUGAUAUAAACCUACUACCUCA | 0.000695 ± 0.0074
GGAGACCAUACUAUACUACCUAGUACCUCA | 0.00377 ± 0.0033
GGAGACCUAUGAUAAGAACCUAGUACCUCA | 0.000182 ± 0.017
GGAGACCUAUCUAUACAACCUAGUACCUGA | 0.0027 ± 0.0032
GGAGACCAUACUAUUCAACCUUCUACCUCA | 0.00206 ± 0.004
GGAGAGGAUACUAUUCAACCAACUACCUCA | 0.00354 ± 0.0021
GGAGACGAUACUAUUCAACGUACUACCUCA | 0.00355 ± 0.0011
GGAGACCUUAGUAUACAUCCUACUACCUCA | 0.0029 ± 0.0036
GGAGAGGAUACUAUACAACCAACUUCCUCA | 0.00313 ± 0.0024
GGAGACCUAUGAUAAGAACGUACUACCUCA | 0.00121 ± 0.0078
GGAGACCUAUGUAUACAACCUACUACCUUCA | 0.00201 ± 0.0048
GGAGACCUAUGAUAUCAACCAACUAGCUCA | 0.000232 ± 0.01
GGAGACCUUACUAUACAACCUACUACGCUCA | 0.00311 ± 0.004
